Source: patent US10513521B2, “Compositions and methods for inhibiting BMP” (The Brigham and Women's Hospital, Inc., priority 2014, dated 2019)

Sequences of proteins named here, by UniProt entry; tags and fusion partners are left off. Residues count along the entry.
UniProt P36894, 24-532 limits assumed: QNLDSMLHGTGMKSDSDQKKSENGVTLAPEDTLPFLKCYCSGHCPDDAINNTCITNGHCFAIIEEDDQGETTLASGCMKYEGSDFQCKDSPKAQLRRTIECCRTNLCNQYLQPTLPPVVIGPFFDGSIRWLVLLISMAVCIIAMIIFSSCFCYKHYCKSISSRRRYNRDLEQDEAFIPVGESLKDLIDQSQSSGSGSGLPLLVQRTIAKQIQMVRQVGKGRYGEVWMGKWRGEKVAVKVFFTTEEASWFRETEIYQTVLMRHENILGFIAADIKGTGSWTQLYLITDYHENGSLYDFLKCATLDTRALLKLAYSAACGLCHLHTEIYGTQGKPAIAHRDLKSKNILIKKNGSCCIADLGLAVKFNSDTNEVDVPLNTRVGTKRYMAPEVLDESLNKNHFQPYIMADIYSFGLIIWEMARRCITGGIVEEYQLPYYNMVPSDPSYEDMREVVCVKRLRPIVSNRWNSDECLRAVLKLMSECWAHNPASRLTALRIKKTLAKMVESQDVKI
UniProt P37023, 22-503 limits assumed: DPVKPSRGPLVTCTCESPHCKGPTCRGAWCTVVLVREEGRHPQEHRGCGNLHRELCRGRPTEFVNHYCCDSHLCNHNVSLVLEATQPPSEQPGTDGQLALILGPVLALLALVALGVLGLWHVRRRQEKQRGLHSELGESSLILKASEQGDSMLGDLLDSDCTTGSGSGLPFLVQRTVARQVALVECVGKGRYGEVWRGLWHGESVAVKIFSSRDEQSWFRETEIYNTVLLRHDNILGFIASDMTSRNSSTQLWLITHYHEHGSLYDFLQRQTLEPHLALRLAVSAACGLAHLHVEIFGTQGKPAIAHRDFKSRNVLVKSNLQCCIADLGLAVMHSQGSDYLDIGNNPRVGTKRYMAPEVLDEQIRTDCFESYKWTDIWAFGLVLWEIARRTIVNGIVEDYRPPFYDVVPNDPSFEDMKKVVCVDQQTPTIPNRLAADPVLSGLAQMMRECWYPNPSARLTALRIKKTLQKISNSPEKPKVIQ
UniProt P36897, 34-503 limits assumed: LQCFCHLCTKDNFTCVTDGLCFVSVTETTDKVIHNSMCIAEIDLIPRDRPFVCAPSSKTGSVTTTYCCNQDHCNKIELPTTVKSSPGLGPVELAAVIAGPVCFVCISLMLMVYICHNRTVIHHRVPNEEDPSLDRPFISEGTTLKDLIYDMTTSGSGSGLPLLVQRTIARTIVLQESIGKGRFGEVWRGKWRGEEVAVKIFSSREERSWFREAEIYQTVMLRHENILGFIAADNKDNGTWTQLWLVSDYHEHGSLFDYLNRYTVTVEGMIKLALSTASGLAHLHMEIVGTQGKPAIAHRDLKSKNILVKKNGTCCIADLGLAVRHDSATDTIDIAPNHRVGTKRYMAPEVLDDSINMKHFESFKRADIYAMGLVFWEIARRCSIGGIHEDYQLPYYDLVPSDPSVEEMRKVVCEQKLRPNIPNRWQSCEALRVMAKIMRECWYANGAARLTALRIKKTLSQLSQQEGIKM
UniProt O00238, 14-502 limits assumed: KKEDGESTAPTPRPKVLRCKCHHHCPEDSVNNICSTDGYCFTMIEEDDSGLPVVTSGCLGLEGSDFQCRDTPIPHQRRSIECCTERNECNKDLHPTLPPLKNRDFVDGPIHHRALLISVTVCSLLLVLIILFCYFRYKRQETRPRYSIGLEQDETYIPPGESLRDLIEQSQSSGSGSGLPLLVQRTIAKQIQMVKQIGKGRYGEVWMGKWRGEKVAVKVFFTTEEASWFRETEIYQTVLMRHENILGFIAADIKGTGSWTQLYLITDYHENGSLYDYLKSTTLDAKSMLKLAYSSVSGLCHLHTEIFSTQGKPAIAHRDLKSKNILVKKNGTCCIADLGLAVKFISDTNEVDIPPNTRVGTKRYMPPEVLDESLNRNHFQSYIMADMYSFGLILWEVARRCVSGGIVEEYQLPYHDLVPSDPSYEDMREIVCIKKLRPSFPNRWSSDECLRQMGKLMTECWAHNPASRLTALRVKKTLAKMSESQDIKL
UniProt P36896, 24-505 limits assumed: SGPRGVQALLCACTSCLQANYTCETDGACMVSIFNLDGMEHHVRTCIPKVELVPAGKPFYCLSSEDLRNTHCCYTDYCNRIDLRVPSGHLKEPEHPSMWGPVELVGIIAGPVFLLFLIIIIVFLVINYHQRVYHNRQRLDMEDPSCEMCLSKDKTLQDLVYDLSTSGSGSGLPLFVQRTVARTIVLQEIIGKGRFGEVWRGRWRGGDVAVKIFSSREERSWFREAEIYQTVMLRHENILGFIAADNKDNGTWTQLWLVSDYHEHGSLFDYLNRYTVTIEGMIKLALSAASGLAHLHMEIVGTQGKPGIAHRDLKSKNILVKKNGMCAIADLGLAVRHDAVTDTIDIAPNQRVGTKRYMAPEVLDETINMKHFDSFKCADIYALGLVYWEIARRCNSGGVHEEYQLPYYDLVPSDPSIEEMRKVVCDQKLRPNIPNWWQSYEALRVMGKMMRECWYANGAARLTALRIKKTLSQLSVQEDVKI

Key:
ALK3 = ALK3 (Homo sapiens, UniProt P36894); test: TR-FRET enzymatic ALK kinase assay, ALK3; conditions: read-out: Kinase Assay ALK3; enzyme assay
ALK1 = ALK1 (Homo sapiens, UniProt P37023); test: TR-FRET enzymatic ALK kinase assay, ALK1; conditions: read-out: Kinase Assay ALK1; enzyme assay
ALK5 = ALK5 (Homo sapiens, UniProt P36897); test: TR-FRET enzymatic ALK kinase assay, ALK5; conditions: read-out: Kinase Assay ALK5; enzyme assay
ALK6 = ALK6 (Homo sapiens, UniProt O00238); test: TR-FRET enzymatic ALK kinase assay, ALK6; conditions: read-out: Kinase Assay ALK6; enzyme assay
ALK4 = ALK4 (Homo sapiens, UniProt P36896); test: TR-FRET enzymatic ALK kinase assay, ALK4; conditions: read-out: Kinase Assay ALK4; enzyme assay

IC50 (ALK3): 850 nM
IC50 (ALK1): 390 nM
IC50 (ALK5): > 10000 nM
IC50 (ALK6): > 10000 nM
IC50 (ALK4): > 10000 nM
Compound: CS(=O)(=O)c1cccc(-c2cnn3cc(-c4ccc(OC5(CN6CCC(O)C6)CC5)cc4)cnc23)c1 (centres unmarked) [Compound 195, 1-((1-(4-(3-(3-(methylsulfonyl)phenyl)pyrazolo[1,5-a]pyrimidin-6-yl)phenoxy)cyclopropyl)methyl)pyrrolidin-3-ol]

The match of structure and compound is tentative.
